Laboratory results from article PMC12284064.
Results are given in words; binding and its absence hold for the method and conditions named. Binding seen in cells or lysates may run through a third protein. Some results given as binding are weak or reduced against the parent protein; the word gives no strength.

Protein sequences, listed by entry. Tags and fused reporters are not part of them. Lines headed by an entry give the natural chain unless they say otherwise; changes in a name come on top. Residues count along the entry.
UniProt Q9BPZ7: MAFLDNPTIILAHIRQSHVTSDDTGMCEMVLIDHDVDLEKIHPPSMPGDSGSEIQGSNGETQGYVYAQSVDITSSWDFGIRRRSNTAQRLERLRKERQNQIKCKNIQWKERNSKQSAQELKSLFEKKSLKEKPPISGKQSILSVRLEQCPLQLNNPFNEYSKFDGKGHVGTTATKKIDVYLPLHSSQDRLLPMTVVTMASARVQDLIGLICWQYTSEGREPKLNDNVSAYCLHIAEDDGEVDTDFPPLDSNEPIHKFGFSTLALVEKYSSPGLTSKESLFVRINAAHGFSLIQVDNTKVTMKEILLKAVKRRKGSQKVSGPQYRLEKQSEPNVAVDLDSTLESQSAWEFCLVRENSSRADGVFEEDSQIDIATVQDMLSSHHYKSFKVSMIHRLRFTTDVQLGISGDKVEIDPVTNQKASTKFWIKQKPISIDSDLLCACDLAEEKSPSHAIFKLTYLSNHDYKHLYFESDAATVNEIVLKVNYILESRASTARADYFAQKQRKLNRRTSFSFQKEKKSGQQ
SIN1 M2 (138–266aa): residues 138-266 of Q9BPZ7

Legend:
[1] = target: SIN1 (Supplementary Fig. 4a, b) (UniProt Q9BPZ7); assay: co-IP; USP33 and SIN1 in PANC-1 cells, with genetic ablation of CDK1 or RO-3306 (binding significantly reduced; Supplementary Fig. 4a); overexpressed USP33 WT or 2A (Supplementary Fig. 4b); method not given, legends not shown
[2] = target: stress-activated protein kinase-interacting protein 1 (SIN1), endogenous (human (endogenous in PANC-1)) (UniProt Q9BPZ7); assay: co-IP; endogenous proteins; PANC-1 and MIA PaCa-2 lysates in NETN buffer, primary antibodies (IgG as control) with protein A/G beads overnight at 4 °C; western blot
SIN1 M2 (138–266aa) = SIN1 M2 (138–266aa) (UniProt Q9BPZ7); assay: co-IP; series of USP33 and SIN1 deletion mutants (Supplementary Fig. 1f, g); tags and cell line not shown
[3] = target: SIN1 full-length (FL), construct of the deletion mapping (UniProt Q9BPZ7); assay: as above

Binder	binding [3]	further results
USP33 WT (Supplementary Fig. 4a, b) (enzyme, UniProt Q8TEY7 1-942) MTGSNSHITILTLKVLPHFESLGKQEKIPNKMSAFRNHCPHLDSVGEITKEDLIQKSLGTCQDCKVQGPNLWACLENRCSYVGCGESQVDHSTIHSQETKHYLTVNLTTLRVWCYACSKEVFLDRKLGTQPSLPHVRQPHQIQENSVQDFKIPSNTTLKTPLVAVFDDLDIEADEEDELRARGLTGLKNIGNTCYMNAALQALSNCPPLTQFFLDCGGLARTDKKPAICKSYLKLMTELWHKSRPGSVVPTTLFQGIKTVNPTFRGYSQQDAQEFLRCLMDLLHEELKEQVMEVEEDPQTITTEETMEEDKSQSDVDFQSCESCSNSDRAENENGSRCFSEDNNETTMLIQDDENNSEMSKDWQKEKMCNKINKVNSEGEFDKDRDSISETVDLNNQETVKVQIHSRASEYITDVHSNDLSTPQILPSNEGVNPRLSASPPKSGNLWPGLAPPHKKAQSASPKRKKQHKKYRSVISDIFDGTIISSVQCLTCDRVSVTLETFQDLSLPIPGKEDLAKLHSSSHPTSIVKAGSCGEAYAPQGWIAFFMEYVKRFVVSCVPSWFWGPVVTLQDCLAAFFARDELKGDNMYSCEKCKKLRNGVKFCKVQNFPEILCIHLKRFRHELMFSTKISTHVSFPLEGLDLQPFLAKDSPAQIVTYDLLSVICHHGTASSGHYIAYCRNNLNNLWYEFDDQSVTEVSESTVQNAEAYVLFYRKSSEEAQKERRRISNLLNIMEPSLLQFYISRQWLNKFKTFAEPGPISNNDFLCIHGGVPPRKAGYIEDLVLMLPQNIWDNLYSRYGGGPAVNHLYICHTCQIEAEKIEKRRKTELEIFIRLNRAFQKEDSPATFYCISMQWFREWESFVKGKDGDPPGPIDNTKIAVTKCGNVMLRQGADSGQISEETWNFLQSIYGGGPEVILRPPVVHVDPDILQAEEKIEVETRSL		binding [1]: binds
ubiquitin-specific protease 33 (USP33), endogenous (enzyme, UniProt Q8TEY7 1-942) MTGSNSHITILTLKVLPHFESLGKQEKIPNKMSAFRNHCPHLDSVGEITKEDLIQKSLGTCQDCKVQGPNLWACLENRCSYVGCGESQVDHSTIHSQETKHYLTVNLTTLRVWCYACSKEVFLDRKLGTQPSLPHVRQPHQIQENSVQDFKIPSNTTLKTPLVAVFDDLDIEADEEDELRARGLTGLKNIGNTCYMNAALQALSNCPPLTQFFLDCGGLARTDKKPAICKSYLKLMTELWHKSRPGSVVPTTLFQGIKTVNPTFRGYSQQDAQEFLRCLMDLLHEELKEQVMEVEEDPQTITTEETMEEDKSQSDVDFQSCESCSNSDRAENENGSRCFSEDNNETTMLIQDDENNSEMSKDWQKEKMCNKINKVNSEGEFDKDRDSISETVDLNNQETVKVQIHSRASEYITDVHSNDLSTPQILPSNEGVNPRLSASPPKSGNLWPGLAPPHKKAQSASPKRKKQHKKYRSVISDIFDGTIISSVQCLTCDRVSVTLETFQDLSLPIPGKEDLAKLHSSSHPTSIVKAGSCGEAYAPQGWIAFFMEYVKRFVVSCVPSWFWGPVVTLQDCLAAFFARDELKGDNMYSCEKCKKLRNGVKFCKVQNFPEILCIHLKRFRHELMFSTKISTHVSFPLEGLDLQPFLAKDSPAQIVTYDLLSVICHHGTASSGHYIAYCRNNLNNLWYEFDDQSVTEVSESTVQNAEAYVLFYRKSSEEAQKERRRISNLLNIMEPSLLQFYISRQWLNKFKTFAEPGPISNNDFLCIHGGVPPRKAGYIEDLVLMLPQNIWDNLYSRYGGGPAVNHLYICHTCQIEAEKIEKRRKTELEIFIRLNRAFQKEDSPATFYCISMQWFREWESFVKGKDGDPPGPIDNTKIAVTKCGNVMLRQGADSGQISEETWNFLQSIYGGGPEVILRPPVVHVDPDILQAEEKIEVETRSL		binding [2]: binds
USP33 full-length (FL), construct of the deletion mapping (enzyme, UniProt Q8TEY7 1-942) MTGSNSHITILTLKVLPHFESLGKQEKIPNKMSAFRNHCPHLDSVGEITKEDLIQKSLGTCQDCKVQGPNLWACLENRCSYVGCGESQVDHSTIHSQETKHYLTVNLTTLRVWCYACSKEVFLDRKLGTQPSLPHVRQPHQIQENSVQDFKIPSNTTLKTPLVAVFDDLDIEADEEDELRARGLTGLKNIGNTCYMNAALQALSNCPPLTQFFLDCGGLARTDKKPAICKSYLKLMTELWHKSRPGSVVPTTLFQGIKTVNPTFRGYSQQDAQEFLRCLMDLLHEELKEQVMEVEEDPQTITTEETMEEDKSQSDVDFQSCESCSNSDRAENENGSRCFSEDNNETTMLIQDDENNSEMSKDWQKEKMCNKINKVNSEGEFDKDRDSISETVDLNNQETVKVQIHSRASEYITDVHSNDLSTPQILPSNEGVNPRLSASPPKSGNLWPGLAPPHKKAQSASPKRKKQHKKYRSVISDIFDGTIISSVQCLTCDRVSVTLETFQDLSLPIPGKEDLAKLHSSSHPTSIVKAGSCGEAYAPQGWIAFFMEYVKRFVVSCVPSWFWGPVVTLQDCLAAFFARDELKGDNMYSCEKCKKLRNGVKFCKVQNFPEILCIHLKRFRHELMFSTKISTHVSFPLEGLDLQPFLAKDSPAQIVTYDLLSVICHHGTASSGHYIAYCRNNLNNLWYEFDDQSVTEVSESTVQNAEAYVLFYRKSSEEAQKERRRISNLLNIMEPSLLQFYISRQWLNKFKTFAEPGPISNNDFLCIHGGVPPRKAGYIEDLVLMLPQNIWDNLYSRYGGGPAVNHLYICHTCQIEAEKIEKRRKTELEIFIRLNRAFQKEDSPATFYCISMQWFREWESFVKGKDGDPPGPIDNTKIAVTKCGNVMLRQGADSGQISEETWNFLQSIYGGGPEVILRPPVVHVDPDILQAEEKIEVETRSL	binds	binding (SIN1 M2 (138–266aa)): binds
USP33 M4 (717–942aa) (domain or fragment, UniProt Q8TEY7 717-942) EEAQKERRRISNLLNIMEPSLLQFYISRQWLNKFKTFAEPGPISNNDFLCIHGGVPPRKAGYIEDLVLMLPQNIWDNLYSRYGGGPAVNHLYICHTCQIEAEKIEKRRKTELEIFIRLNRAFQKEDSPATFYCISMQWFREWESFVKGKDGDPPGPIDNTKIAVTKCGNVMLRQGADSGQISEETWNFLQSIYGGGPEVILRPPVVHVDPDILQAEEKIEVETRSL	binds	
USP33 M5 (811–942aa) (domain or fragment, UniProt Q8TEY7 811-942) HTCQIEAEKIEKRRKTELEIFIRLNRAFQKEDSPATFYCISMQWFREWESFVKGKDGDPPGPIDNTKIAVTKCGNVMLRQGADSGQISEETWNFLQSIYGGGPEVILRPPVVHVDPDILQAEEKIEVETRSL	binds	
